US8642628B2, “Pyrrole inhibitors of S-nitrosoglutathione reductase” (N30 Pharmaceuticals, Inc., priority 2008, dated 2014)
Some results were stated once for a whole list of compounds, not compound by compound.

Protein sequences, listed by entry. Tags and fused reporters are not part of them. Lines headed by an entry give the natural chain unless they say otherwise; changes in a name come on top.
UniProt P11766: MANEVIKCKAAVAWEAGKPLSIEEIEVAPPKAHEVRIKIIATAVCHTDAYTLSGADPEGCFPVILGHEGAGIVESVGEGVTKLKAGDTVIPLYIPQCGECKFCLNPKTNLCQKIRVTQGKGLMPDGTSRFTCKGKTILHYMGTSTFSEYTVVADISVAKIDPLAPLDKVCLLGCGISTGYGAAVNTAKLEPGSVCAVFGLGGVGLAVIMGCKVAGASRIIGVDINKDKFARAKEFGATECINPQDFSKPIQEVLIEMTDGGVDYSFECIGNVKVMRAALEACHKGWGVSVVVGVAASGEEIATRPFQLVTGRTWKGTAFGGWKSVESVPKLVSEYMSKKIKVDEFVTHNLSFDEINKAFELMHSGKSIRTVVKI

The compounds below were run against T1, GSNOR (GSNO Reductase) (Homo sapiens, UniProt P11766) (assay: GSNOR assay (inhibition of GSNOR activity, change in 340 nm absorbance)). Conditions: 100 mM NaPO4 pH 7.4, 0.240 mM GSNO, 0.300 mM NADH, 0.5 μg/mL GSNO Reductase, 1% DMSO, 25° C.; values given as 'about' bounds; read-out: IC50 (GSNOR inhibitor activity).
T1 construct: made in house; host or cells: E. coli (arabinose-induced)
Format: biochemical
Experimental: Various compounds were tested in vitro for their ability to inhibit GSNOR activity. […] GSNOR expression and purification is described in Biochemistry 2000, 39, 10720-10729.
GSNOR fermentation: Pre-cultures were grown from stabs of a GSNOR glycerol stock in 2XYT media containing 100 ug/ml ampicillin after an overnight incubation at 37° C. Cells were then added to fresh 2XYT (4L) containing ampicillin and grown to an OD (A600) of 0.6-0.9 at 37° C. before induction. GSNOR expression was induced with 0.1% arabinose in an overnight incubation at 20° C.
GSNOR Purification: E. coli cell paste was lysed by nitrogen cavitation and the clarified lysate purified by Ni affinity chromatography on an AKTA FPLC (Amersham Pharmacia). The column was eluted in 20 mM Tris pH 8.0/250 mM NaCl with a 0-500 mM imidazole gradient. […] GSNOR was recovered in the flowthrough fraction and for crystallography is further purified by Q-Sepharose and Heparin flowthrough chromatography in 20 mM Tris pH 8.0, 1 mM DTT, 10 uM ZnSO4.
GSNOR assay: GSNO and Enzyme/NADH Solutions are made up fresh each day. The Solutions are filtered and allowed to warm to room temperature. GSNO Solution: 100 mM NaPO4 (pH 7.4), 0.480 mM GSNO. 396 μL of GSNO Solution is added to a cuvette followed by 8 μL of test compound in DMSO (or DMSO only for full reaction control) and mixed with the pipette tip. Compounds to be tested are made up at a stock concentration of 10 mM in 100% DMSO. 2 fold serial dilutions are done in 100% DMSO. 8 μL of each dilution are added to an assay so that the final concentration of DMSO in the assay is 1%. The concentrations of compounds tested range from 100 to 0.003 μM. Enzyme/NADH Solution: 100 mM NaPO4 (pH 7.4), 0.600 mM NADH, 1.0 μg/mL GSNO Reductase. 396 μL of the Enzyme/NADH Solution is added to the cuvette to start the reaction. The cuvette is placed in the Cary 3E UV/Visible Spectrophotometer and the change in 340 nm absorbance/min at 25° C. is recorded for 3 minutes. The assays are done in triplicate for each compound concentration. IC50's for each compound are calculated using the standard curve analysis in the Enzyme Kinetics Module of SigmaPlot.
Final assay conditions: 100 mM NaPO4, pH 7.4, 0.240 mM GSNO, 0.300 mM NADH, 0.5 μg/mL GSNO Reductase and 1% DMSO. Final volume: 800 μL/cuvette.

IC50, < 100 µM:
COc1ccc(-c2ccn(-c3ccc(C(=O)O)c(F)c3)c2-c2ccc(C(N)=O)cc2C)cc1 [Example 16, 4-(2-(4-carbamoyl-2-methylphenyl)-3-(4-methoxyphenyl)-1H-pyrrol-1-yl)-2-fluorobenzoic acid]
COc1ccc(-c2ccn(-c3ccc(O)nc3)c2-c2ccc(C(N)=O)cc2C)cc1 [Example 18, 4-(1-(6-hydroxypyridin-3-yl)-3-(4-methoxyphenyl)-1H-pyrrol-2-yl)-3-methylbenzamide]
COc1ccc(-c2ccn(-c3cc(F)c(O)c(F)c3)c2-c2ccc(C(N)=O)cc2C)cc1 [Example 25, 4-(1-(3,5-difluoro-4-hydroxyphenyl)-3-(4-methoxyphenyl)-1H-pyrrol-2-yl)-3-methylbenzamide]
Cc1cc(C(N)=O)ccc1-c1c(-c2ccc(-n3ccnc3)cc2)ccn1CCC(=O)O [Example 5, 3-(3-(4-(1H-imidazol-1-yl)phenyl)-2-(4-carbamoyl-2-methylphenyl)-1H-pyrrol-1-yl)propanoic acid]
COc1ccc(-c2ccn(CC(C)C(=O)O)c2-c2ccc(C(N)=O)cc2C)cc1 (stereo not drawn) [Example 3, 3-(2-(4-carbamoyl-2-methylphenyl)-3-(4-methoxyphenyl)-1H-pyrrol-1-yl)-2-methylpropanoic acid]
Cc1cc(C(N)=O)ccc1-c1c(-c2ccc(-n3ccnc3C)cc2)ccn1-c1cc(F)c(O)c(F)c1 [Example 30, 4-(1-(3,5-difluoro-4-hydroxyphenyl)-3-(4-(2-methyl-1H-imidazol-1-yl)phenyl)-1H-pyrrol-2-yl)-3-methylbenzamide]
COc1ccc(-c2ccn(CC(O)C(=O)O)c2-c2ccc(C(N)=O)cc2C)cc1 (stereo not drawn) [Example 10, 3-(2-(4-carbamoyl-2-methylphenyl)-3-(4-methoxyphenyl)-1H-pyrrol-1-yl)-2-hydroxypropanoic acid]
Cc1cc(C(N)=O)ccc1-c1c(CCC(=O)O)ccn1-c1ccc(-n2ccnc2)cc1 [Example 13, 3-(1-(4-(1H-imidazol-1-yl)phenyl)-2-(4-carbamoyl-2-methylphenyl)-1H-pyrrol-3-yl)propanoic acid]
CCCC(CC(=O)O)n1ccc(-c2ccc(OC)cc2)c1-c1ccc(C(N)=O)cc1C (stereo not drawn) [Example 11, 3-(2-(4-carbamoyl-2-methylphenyl)-3-(4-methoxyphenyl)-1H-pyrrol-1-yl)hexanoic acid]
COc1ccc(-c2ccn(C(CC(=O)O)C(C)C)c2-c2ccc(C(N)=O)cc2C)cc1 (stereo not drawn) [Example 12, 3-(2-(4-carbamoyl-2-methylphenyl)-3-(4-methoxyphenyl)-1H-pyrrol-1-yl)-4-methylpentanoic acid]
COc1ccc(-c2ccn(CCCC(=O)O)c2-c2ccc(C(N)=O)cc2C)cc1 [Example 4, 4-(2-(4-carbamoyl-2-methylphenyl)-3-(4-methoxyphenyl)-1H-pyrrol-1-yl)butanoic acid]
COc1ccc(-c2ccn(CC(F)(F)C(=O)O)c2-c2ccc(C(N)=O)cc2C)cc1 [Example 9, 3-(2-(4-carbamoyl-2-methylphenyl)-3-(4-methoxyphenyl)-1H-pyrrol-1-yl)-2,2-difluoropropanoic acid]
COc1ccc(-c2ccn(CCC(=O)O)c2-c2ccc(C(N)=O)cc2C)cc1 [Example 1, 3-(2-(4-carbamoyl-2-methylphenyl)-3-(4-methoxyphenyl)-1H-pyrrol-1-yl)propanoic acid]
Cc1cc(C(N)=O)ccc1-c1c(-c2ccc(-n3ccnc3C)cc2)ccn1-c1ccc(O)c(F)c1 [Example 29, 4-(1-(3-fluoro-4-hydroxyphenyl)-3-(4-(2-methyl-1H-imidazol-1-yl)phenyl)-1H-pyrrol-2-yl)-3-methylbenzamide]
COc1ccc(-c2ccn(C(CC(=O)O)c3ccccc3)c2-c2ccc(C(N)=O)cc2C)cc1 (stereo not drawn) [Example 2, 3-(2-(4-carbamoyl-2-methylphenyl)-3-(4-methoxyphenyl)-1H-pyrrol-1-yl)-3-phenylpropanoic acid]
COc1ccc(-c2ccn(-c3ccc(C(=O)O)cc3)c2-c2ccc(C(N)=O)cc2C)cc1 [Example 19, 4-(2-(4-carbamoyl-2-methylphenyl)-3-(4-methoxyphenyl)-1H-pyrrol-1-yl)benzoic acid]
COc1ccc(-c2ccn(-c3ccc(C(=O)O)c(Cl)c3)c2-c2ccc(C(N)=O)cc2C)cc1 [Example 20, 4-(2-(4-carbamoyl-2-methylphenyl)-3-(4-methoxyphenyl)-1H-pyrrol-1-yl)-2-chlorobenzoic acid]
COc1ccc(-c2ccn(-c3ccc(C(=O)O)c(O)c3)c2-c2ccc(C(N)=O)cc2C)cc1 [Example 15, 4-(2-(4-carbamoyl-2-methylphenyl)-3-(4-methoxyphenyl)-1H-pyrrol-1-yl)-2-hydroxybenzoic acid]
COc1ccc(-c2ccn(-c3ccc(C(=O)O)cn3)c2-c2ccc(C(N)=O)cc2C)cc1 [Example 28, 6-(2-(4-carbamoyl-2-methylphenyl)-3-(4-methoxyphenyl)-1H-pyrrol-1-yl)nicotinic acid]
COc1ccc(-c2ccn(-c3ccc(C(=O)O)nc3)c2-c2ccc(C(N)=O)cc2C)cc1 [Example 24, 5-(2-(4-carbamoyl-2-methylphenyl)-3-(4-methoxyphenyl)-1H-pyrrol-1-yl)picolinic acid]
COc1ccc(-c2ccn(CCNS(=O)(=O)C(F)(F)F)c2-c2ccc(C(N)=O)cc2C)cc1 [Example 21, 4-(3-(4-methoxyphenyl)-1-(2-(trifluoromethylsulfonamido)ethyl)-1H-pyrrol-2-yl)-3-methylbenzamide]
COc1ccc(-c2ccn(CC3(C(=O)O)CC3)c2-c2ccc(C(N)=O)cc2C)cc1 [Example 8, 1-((2-(4-carbamoyl-2-methylphenyl)-3-(4-methoxyphenyl)-1H-pyrrol-1-yl)methyl)cyclopropanecarboxylic acid]
COc1ccc(-c2ccn(C(C)CC(=O)O)c2-c2ccc(C(N)=O)cc2C)cc1 (stereo not drawn) [Example 7, 3-(2-(4-carbamoyl-2-methylphenyl)-3-(4-methoxyphenyl)-1H-pyrrol-1-yl)butanoic acid]
COc1ccc(-c2ccn(-c3ccc(O)c([N+](=O)[O-])c3)c2-c2ccc(C(N)=O)cc2C)cc1 [Example 17, 4-(1-(4-hydroxy-3-nitrophenyl)-3-(4-methoxyphenyl)-1H-pyrrol-2-yl)-3-methylbenzamide]
COc1ccc(-n2ccc(CCC(=O)O)c2-c2ccc(C(N)=O)cc2C)cc1 [Example 6, 3-(2-(4-carbamoyl-2-methylphenyl)-1-(4-methoxyphenyl)-1H-pyrrol-3-yl)propanoic acid]
COc1ccc(-c2ccn(-c3ccc(S(N)(=O)=O)cc3)c2-c2ccc(C(N)=O)cc2C)cc1 [Example 22, 4-(3-(4-methoxyphenyl)-1-(4-sulfamoylphenyl)-1H-pyrrol-2-yl)-3-methylbenzamide]
COc1ccc(-c2ccn(-c3ccc(O)cn3)c2-c2ccc(C(N)=O)cc2C)cc1 [Example 26, 4-(1-(5-hydroxypyridin-2-yl)-3-(4-methoxyphenyl)-1H-pyrrol-2-yl)-3-methylbenzamide]
COc1ccc(-c2ccn(-c3ccc(O)c(F)c3)c2-c2ccc(C(N)=O)cc2C)cc1 [Example 23, 4-(1-(3-fluoro-4-hydroxyphenyl)-3-(4-methoxyphenyl)-1H-pyrrol-2-yl)-3-methylbenzamide]
COc1ccc(-c2ccn(-c3ccc(O)c(C(=O)O)c3)c2-c2ccc(C(N)=O)cc2C)cc1 [Example 27, 5-(2-(4-carbamoyl-2-methylphenyl)-3-(4-methoxyphenyl)-1H-pyrrol-1-yl)-2-hydroxybenzoic acid]
COc1cc(Cl)ccc1-n1ccc(CCC(=O)O)c1-c1ccc(C(N)=O)cc1C [Example 14, 3-(2-(4-carbamoyl-2-methylphenyl)-1-(4-chloro-2-methoxyphenyl)-1H-pyrrol-3-yl)propanoic acid]
